# Results as given in PMC5996148.
# Amino acid sequences for entries named in this document (tags omitted). A change or cut given only in a name is not applied to a line headed by its entry.
# UniProt Q8NC51: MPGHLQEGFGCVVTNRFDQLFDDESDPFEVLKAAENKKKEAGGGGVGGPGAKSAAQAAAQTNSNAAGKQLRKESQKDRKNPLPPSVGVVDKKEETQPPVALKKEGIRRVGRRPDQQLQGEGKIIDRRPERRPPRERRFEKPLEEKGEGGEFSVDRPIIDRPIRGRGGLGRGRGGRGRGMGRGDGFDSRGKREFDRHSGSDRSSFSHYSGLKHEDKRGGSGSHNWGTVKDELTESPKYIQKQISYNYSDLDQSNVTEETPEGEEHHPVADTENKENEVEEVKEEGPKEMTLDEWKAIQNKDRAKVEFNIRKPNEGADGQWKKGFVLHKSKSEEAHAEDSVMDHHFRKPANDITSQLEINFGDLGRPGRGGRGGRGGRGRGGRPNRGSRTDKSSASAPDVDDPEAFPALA
# “And” between values parts separate entries of the source, which are not always exact repeats. Equal values may be shown once. Some of the results follow. For some of these results: Construct or isoform of the protein are uncertain.
# Columns and labels:
# Test in all cases: protein microarray (ProtoArray v5.0), streptavidin-Alexa Fluor 647
# Conditions in all cases: 3'-biotin; 20 mM Tris (pH 7.5), 5 mM MgCl2, 100 mM KCl, 0.1% Tween-20, A/T-rich and random oligonucleotide blockers; temperature not stated; high values mean tight binding
# [1] = test system: SDSL (human)
# [2] = test system: SEC13L1 (human)
# [3] = test system: SELPLG (human)
# [4] = test system: SENP8 (human)
# [5] = test system: SEPHS2 (human)
# [6] = test system: SEPT11 (human)
# [7] = test system: SEPT4 (human)
# [8] = test system: SEPT6 (human)
# [9] = test system: SEPT9 (human)
# [10] = molecular target: SERBP1 (UniProt Q8NC51)
sequence,measurement,setting,value
GGGGACAGGGGTATGGGGAGGGG [G4-3 biotinylated (CtG)],binding signal,[1],-0.325 z-score
same,binding signal,[2],-0.34 z-score
same,binding signal,[3],-0.337 z-score
same,binding signal,[4],-0.348 z-score
same,binding signal,[5],-0.337 z-score
same,binding signal,[6],-0.337 z-score
same,binding signal,[7],-0.3 z-score
same,binding signal,[8],-0.326 z-score
same,binding signal,[9],-0.327 z-score
same,binding signal,[10],3.4 z-score and 3.76 z-score

# Nothing new here: an excerpt of the list.
sequence,measurement,setting,value
GGGGACAGGGGTATGGGGAGGGG [G4-3 biotinylated (CtG)],binding signal,[8],-0.326 z-score
same,binding signal,[9],-0.327 z-score
